From paper doi:10.1101/2023.12.18.572145

Molecular target: PREPL β-propeller domain alone (MAPPIT bait) (human) (UniProt Q4J6C6)
Assay: two-hybrid

B1: STX5 (protein, UniProt Q13190 1-355)
chain: MIPRKRYGSKNTDQGVYLGLSKTQVLSPATAGSSSSDIAPLPPPVTLVPPPPDTMSCRDRTQEFLSACKSLQTRQNGIQTNKPALRAVRQRSEFTLMAKRIGKDLSNTFAKLEKLTILAKRKSLFDDKAVEIEELTYIIKQDINSLNKQIAQLQDFVRAKGSQSGRHLQTHSNTIVVSLQSKLASMSNDFKSVLEVRTENLKQQRSRREQFSRAPVSALPLAPNHLGGGAVVLGAESHASKDVAIDMMDSRTSQQLQLIDEQDSYIQSRADTMQNIESTIVELGSIFQQLAHMVKEQEETIQRIDENVLGAQLDVEAAHSEILKYFQSVTSNRWLMVKIFLILIVFFIIFVVFLA
- binding: no binding

No constants are given. Whether binding was seen depends on the method and setting.
